# PubChem BioAssay AID1224830, NIAID | 2016
# Purpose: 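Host factors that control LPS-induced TNF expression in human macrophages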 (primary screen)
# Cells: human THP-1 monocytic leukaemia cells, TNF dual-luciferase reporter clone, PMA-differentiated to macrophage-like cells
# Reagent: siRNA pool against human genes, 50 nM
# Time to read-out: LPS for 4 h, given about 3 days after siRNA transfection
# Challenge: bacterial LPS (TLR4 ligand), 10 ng/ml
# Measured: 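Ratio of firefly to renilla light, scaled to the plate median and expressed as a robust z-score per replicate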
# Reading the numbers: TNF reporter robust z-score: higher = stronger TNF reporter response to LPS
# Active means: 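Each well counts as active if its z-score is over 2.8 or under -1.5; controls are left without a call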
# Here is one part, drawn at random, of about 18,000 deposited reagents. About 2,900 of all reagents (16%) count as active. 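Calls are made per well; low scores hint the gene aids the LPS response, high scores that it dampens it.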 Unmarked entries are inactive. Reagents against one gene are numbered here. Repeated entries: four replicate wells of each siRNA pool. Reagent sequences are not shown.
gene symbol,pool no.,TNF reporter robust z-score
WNT8A,1,-0.68
WNT8A,1,0.35
WNT8A,1,1.18
WNT8A,1,0.95
DNAJC17,1,-0.04
DNAJC17,1,-0.21
DNAJC17,1,0.34
DNAJC17,1,0.09
TFE3,1,-0.68
TFE3,1,-0.12
TFE3,1,-0.25
TFE3,1,0.2
FES,1,0.37
FES,1,0.06
FES,1,1.94
FES,1,1.25
DPRX,1,1.18
DPRX,1,0.88
DPRX,1,1.9
DPRX,1,2.39
POGZ,1,-0.9
POGZ,1,-1.19
POGZ,1,0.82
POGZ,1,-0.95
OR6V1,1,1.16
OR6V1,1,-0.44
OR6V1,1,0.17
OR6V1,1,0.49
JAKMIP1,1,1.23
JAKMIP1,1,0.9
JAKMIP1,1,0.31
JAKMIP1,1,0.6
IFT54,1,0.12
IFT54,1,2.27
IFT54,1,0.14
IFT54,1,1.42
TCP11L1,1,1.15
TCP11L1,1,1.86
TCP11L1,1,1.98
TCP11L1,1,0.55
CAVIN1,1,0
CAVIN1,1,1.01
CAVIN1,1,-0.2
CAVIN1,1,-0.21
OR8K1,1,1.14
OR8K1,1,0.26
OR8K1,1,7.98 (active)
OR8K1,1,3.2 (active)
GFOD2,1,0.89
GFOD2,1,0.6
GFOD2,1,0.59
TBCEL,1,0.48
TBCEL,1,1.36
TBCEL,1,0.59
TBCEL,1,1.33
RNASE12,1,0.82
RNASE12,1,0.91
RNASE12,1,1.3
RNASE12,1,0.28
NPR3,1,0.11
NPR3,1,0.4
NPR3,2,1.08
NPR3,2,-0.27
NPR3,2,0.17
NPR3,2,2.01
SYNPR,1,-0.76
SYNPR,1,-0.49
SYNPR,1,1.41
SYNPR,1,0.17
ATP5PF,1,-0.14
ATP5PF,1,-0.65
ATP5PF,1,-0.42
ATP5PF,1,0.09
KRTAP2-4,1,-1.1
KRTAP2-4,1,-0.83
KRTAP2-4,1,-0.85
RWDD2B,1,2.4
RWDD2B,1,3.32 (active)
RWDD2B,1,3.51 (active)
RWDD2B,1,2.72
OSBPL9,1,-0.25
OSBPL9,1,0.03
OSBPL9,1,0.68
OSBPL9,1,0.64
CTSZ,1,-0.01
CTSZ,1,-0.14
CTSZ,1,0
CTSZ,1,-0.6
SPTLC2,1,0.07
SPTLC2,1,-0.41
SPTLC2,1,0.14
SPTLC2,1,2.3
AIF1L,1,0.21
AIF1L,1,0.73
AIF1L,1,1.17
AIF1L,1,0.51
AGPAT1,1,-0.42
AGPAT1,1,-0.07
AGPAT1,1,-0.33
AGPAT1,1,-0.01
RILPL1,1,-1.05
RILPL1,1,-1.29
RILPL1,1,-0.96
RILPL1,1,1.3
GPC1,1,-0.47
GPC1,1,-0.24
GPC1,1,-0.75
GPC1,1,-0.03
RHBDF2,1,-0.5
RHBDF2,1,-0.2
RHBDF2,1,-0.13
RHBDF2,1,-0.59

Called active, among the entries above:
gene symbol,pool no.,TNF reporter robust z-score
OR8K1,1,7.98 (active)
OR8K1,1,3.2 (active)
RWDD2B,1,3.32 (active)
RWDD2B,1,3.51 (active)
